Test system: proteinase K
Assay: Limited proteolysis with proteinase K
Details: C-terminal domain, 50°C, 10 min, pH 7.4, SDS-PAGE

Molecule	proteolysis pattern / degradation
μ4-D190A: recombinant μ4 C-terminal domain with single mutation D190A at the μ2-binding site (protein, left off: GST, N-terminal, cleaved) QQSKVAPSSAASRPVLSSRSDQSQKNEVFLAVVERLSVLIASNGSLLKVDVQGEIRLKSFLPSGSEMRIGLTEEFCVGKSELRGYGPGIRVDEVSFHSSVNLDEFESHRILRLQPPQGELTVMRYQLSDDLPSPLPFRLFPSVQWDRGSGRLQVYLKLRCDLLSKSQALNVRLHLPLPRGVVSLSQELSSPEQKAELAEGALRWDLPRVQGGSQLSGLFQMDVPGPPGPPSHGLSTSASPLGLGPASLSFELPRHTCSGLQVRFLRLAFRPCGNANPHKWVRHLSHSDAYVIRI	almost completely degraded
μ4-R283D: μ4 with the single mutation R283D at the μ4-binding site (C-terminal domain; untagged full-length in b45) (protein, left off: GST, N-terminal, cleaved) QQSKVAPSSAASRPVLSSRSDQSQKNEVFLDVVERLSVLIASNGSLLKVDVQGEIRLKSFLPSGSEMRIGLTEEFCVGKSELRGYGPGIRVDEVSFHSSVNLDEFESHRILRLQPPQGELTVMDYQLSDDLPSPLPFRLFPSVQWDRGSGRLQVYLKLRCDLLSKSQALNVRLHLPLPRGVVSLSQELSSPEQKAELAEGALRWDLPRVQGGSQLSGLFQMDVPGPPGPPSHGLSTSASPLGLGPASLSFELPRHTCSGLQVRFLRLAFRPCGNANPHKWVRHLSHSDAYVIRI	three fragments that likely corresponded to the stable fragments generated at 25 °C
μ4-D190S: D190S mutant of μ4 (C-terminal domain in vitro; full-length, HA-tagged or untagged, in cells) (protein, left off: GST, N-terminal, cleaved) QQSKVAPSSAASRPVLSSRSDQSQKNEVFLSVVERLSVLIASNGSLLKVDVQGEIRLKSFLPSGSEMRIGLTEEFCVGKSELRGYGPGIRVDEVSFHSSVNLDEFESHRILRLQPPQGELTVMRYQLSDDLPSPLPFRLFPSVQWDRGSGRLQVYLKLRCDLLSKSQALNVRLHLPLPRGVVSLSQELSSPEQKAELAEGALRWDLPRVQGGSQLSGLFQMDVPGPPGPPSHGLSTSASPLGLGPASLSFELPRHTCSGLQVRFLRLAFRPCGNANPHKWVRHLSHSDAYVIRI	indistinguishable from that of wild-type μ4

— article PMC3912200, “Structural and Functional Characterization of Cargo-Binding Sites on the μ4-Subunit of Adaptor Protein Complex 4” (PLoS ONE, 2014)
